Measured values from paper PMC9114115, “Property space mapping of Pseudomonas aeruginosa permeability to small molecules” (Scientific Reports, 2022).
Values joined by “and” are separate entries in the source; they are usually repeats but may differ in a detail not shown here. Identical values can stand only once. Counter-ions that a name gives are not always drawn.

Legend:
[1] = system: P. aeruginosa PΔ3-Pore; assay: MIC by two-fold dilution, barrierless PΔ3-Pore; assay type: cell-based; details: Pseudomonas aeruginosa, read-out: MICs, P∆3-Pore, MOPS-M9 medium
Experimental: (§1) In all experiments, P. aeruginosa PAO1-Pore (PAO1 attTn7::PLAC-fhuA) and PΔ3-Pore (ΔmexAB ΔmexCD ΔmexXY attTn7::PLAC-fhuA) strains were used[29]. Strains were routinely grown in Luria–Bertani (LB) or MOPS-M9 medium at 37 °C with aeration. MICs shown in Tables 1 and 2 were determined by a two-fold dilution method in LB broth and MOPS-M9 medium, respectively, following the previously described protocol.

[2] = system: P. aeruginosa PΔ3; assay: microbe, parasite or virus in culture; assay type: cell-based; details: Pseudomonas aeruginosa, read-out: MICs
Experimental: as §1

Question: Which results are given for CCn1cc(C(=O)O)c(=O)c2cc(F)c(N3CCN(C)CC3)cc21 [OU-0000619, PEFLOXACINE MESYLATE]?
Answer: MIC [1]: 0.0625 µM; MIC [2]: 0.5 µM and 0.21 µg/mL
